Data published in paper PMC2645672, “Mechanism of Neuronal versus Endothelial Cell Uptake of Alzheimer's Disease Amyloid β Protein” (PLoS ONE, 2009).

Legend:
[1] = test system: differentiated PC12 cells; experiment: Cellular uptake and localization by microscopy in differentiated PC12 cells
[2] = test system: rat primary hippocampal (RPH) neurons; experiment: Cellular uptake and localization by microscopy in rat primary hippocampal neurons; details: 15 µg/ml F-Aβ40 and 75 nM Lysotracker Red, 30 min, 37°C

F-Aβ40: fluorescein labeled human Aβ40
Co-localization with AF647-CT (caveolae mediated endocytosis marker) [1]: co-localized very slightly | Co-localization with LysoTracker red (acidic compartments) ([1]; 15 µg/ml F-Aβ40 and 75 nM Lysotracker Red in DMEM, 30 min, 37°C): only a partial co-localization | Co-localization with Dil-LDL (late endosomes) ([1]; 15 µg/ml F-Aβ40 and 15 µg/ml Dil-LDL, 15 and 30 min, 37°C): partial co-localization | Site of accumulation in RPH neurons (Lysotracker Red predominantly in the cell body) [2]: in the neurites
